According to patent US20050053985A1:
Results are given in words; binding and its absence hold for the method and conditions named. In cells and extracts the contact can be indirect. Some binding calls cover weakened binding; strength is not graded here. Tags and fused reporters may be left off the sequences shown.

The chains behind the UniProt entries cited, without tags or fusion partners.
UniProt O95639: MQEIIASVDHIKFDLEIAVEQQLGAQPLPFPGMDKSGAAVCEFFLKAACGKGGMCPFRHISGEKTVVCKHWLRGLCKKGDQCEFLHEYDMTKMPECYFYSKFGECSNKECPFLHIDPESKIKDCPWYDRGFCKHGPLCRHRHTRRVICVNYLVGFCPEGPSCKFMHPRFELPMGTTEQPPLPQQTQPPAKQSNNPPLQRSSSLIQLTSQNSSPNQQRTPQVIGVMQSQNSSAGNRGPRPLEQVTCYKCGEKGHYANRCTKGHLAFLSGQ

How the values were obtained:
[1] = target: CPSF30 (30 kD factor 4) (human) (UniProt O95639); test: co-purification (anti-Flag then Ni beads), SDS-PAGE, Western blot
[2] = target: T1, CstF64 (64 kD subunit 2) (human) (UniProt P33240); test: as above
T1 sequence (looked up): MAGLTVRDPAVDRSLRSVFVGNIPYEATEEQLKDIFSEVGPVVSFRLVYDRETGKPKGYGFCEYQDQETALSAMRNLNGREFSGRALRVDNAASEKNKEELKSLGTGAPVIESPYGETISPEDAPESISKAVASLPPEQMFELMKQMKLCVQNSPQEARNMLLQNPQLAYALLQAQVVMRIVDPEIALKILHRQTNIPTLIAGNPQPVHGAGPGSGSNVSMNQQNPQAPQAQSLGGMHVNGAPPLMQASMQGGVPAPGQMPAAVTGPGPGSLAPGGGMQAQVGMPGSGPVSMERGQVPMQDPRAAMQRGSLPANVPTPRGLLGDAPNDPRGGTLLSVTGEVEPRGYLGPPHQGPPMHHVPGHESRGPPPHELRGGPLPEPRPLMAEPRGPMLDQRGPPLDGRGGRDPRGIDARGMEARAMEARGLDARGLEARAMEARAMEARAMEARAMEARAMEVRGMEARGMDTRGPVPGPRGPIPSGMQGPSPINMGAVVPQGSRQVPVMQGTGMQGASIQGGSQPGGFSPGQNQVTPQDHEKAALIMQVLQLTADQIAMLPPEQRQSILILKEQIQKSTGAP

Symplekin (human) = target: T2, Symplekin (human) (UniProt Q92797); test: as above
T2 sequence (looked up): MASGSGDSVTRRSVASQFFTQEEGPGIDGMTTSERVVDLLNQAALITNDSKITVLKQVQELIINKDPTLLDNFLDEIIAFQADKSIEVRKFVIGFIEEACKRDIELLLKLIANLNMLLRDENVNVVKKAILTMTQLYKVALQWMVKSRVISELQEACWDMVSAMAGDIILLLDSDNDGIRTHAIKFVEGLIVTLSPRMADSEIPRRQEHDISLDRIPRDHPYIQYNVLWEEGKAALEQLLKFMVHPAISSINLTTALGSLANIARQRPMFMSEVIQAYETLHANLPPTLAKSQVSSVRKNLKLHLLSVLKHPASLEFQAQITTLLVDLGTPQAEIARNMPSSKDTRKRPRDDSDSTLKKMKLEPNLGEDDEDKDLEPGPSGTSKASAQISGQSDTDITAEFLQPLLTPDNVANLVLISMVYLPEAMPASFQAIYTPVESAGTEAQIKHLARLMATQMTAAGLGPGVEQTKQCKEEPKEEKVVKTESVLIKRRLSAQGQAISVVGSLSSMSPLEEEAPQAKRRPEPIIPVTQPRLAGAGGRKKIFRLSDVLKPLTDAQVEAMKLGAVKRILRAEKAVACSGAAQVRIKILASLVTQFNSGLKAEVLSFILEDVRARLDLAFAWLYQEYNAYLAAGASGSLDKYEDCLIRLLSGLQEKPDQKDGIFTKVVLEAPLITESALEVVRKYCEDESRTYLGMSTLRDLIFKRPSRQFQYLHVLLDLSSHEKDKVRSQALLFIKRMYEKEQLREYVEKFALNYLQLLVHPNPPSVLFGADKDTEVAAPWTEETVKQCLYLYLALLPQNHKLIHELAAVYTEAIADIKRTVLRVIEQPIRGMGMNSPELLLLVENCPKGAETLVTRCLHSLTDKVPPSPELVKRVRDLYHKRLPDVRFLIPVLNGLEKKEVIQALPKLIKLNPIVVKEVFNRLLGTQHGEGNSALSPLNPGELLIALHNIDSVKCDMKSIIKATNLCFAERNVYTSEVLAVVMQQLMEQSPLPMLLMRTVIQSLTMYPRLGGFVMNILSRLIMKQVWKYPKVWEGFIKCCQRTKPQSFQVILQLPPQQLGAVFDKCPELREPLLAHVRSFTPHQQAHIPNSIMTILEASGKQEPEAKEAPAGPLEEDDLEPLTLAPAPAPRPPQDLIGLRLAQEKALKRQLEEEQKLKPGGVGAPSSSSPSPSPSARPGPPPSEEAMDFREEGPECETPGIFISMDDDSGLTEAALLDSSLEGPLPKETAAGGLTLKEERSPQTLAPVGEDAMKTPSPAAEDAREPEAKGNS

HsSen2 (human) = target: T3, HsSen2 (human) (UniProt Q8NCE0); test: co-purification with the His-Flag-tagged bait from stable 293 cells (anti-Flag beads, then Ni beads); SDS-PAGE, silver staining
T3 sequence (looked up): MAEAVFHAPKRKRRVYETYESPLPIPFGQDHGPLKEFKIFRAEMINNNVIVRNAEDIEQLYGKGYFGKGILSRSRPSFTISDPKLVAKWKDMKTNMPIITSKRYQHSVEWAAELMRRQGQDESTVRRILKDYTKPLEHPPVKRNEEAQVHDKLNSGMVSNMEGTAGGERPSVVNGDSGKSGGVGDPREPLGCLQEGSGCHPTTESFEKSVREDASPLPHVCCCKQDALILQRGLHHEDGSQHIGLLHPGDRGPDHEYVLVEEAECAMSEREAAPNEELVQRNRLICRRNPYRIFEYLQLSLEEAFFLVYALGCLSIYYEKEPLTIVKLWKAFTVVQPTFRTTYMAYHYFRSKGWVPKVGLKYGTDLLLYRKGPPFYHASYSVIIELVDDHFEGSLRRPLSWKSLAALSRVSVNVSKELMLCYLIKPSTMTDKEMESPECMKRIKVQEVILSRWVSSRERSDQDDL

HsSen34 (human) = target: T4, HsSen34 (human) (UniProt Q9BSV6); test: as above
T4 sequence (looked up): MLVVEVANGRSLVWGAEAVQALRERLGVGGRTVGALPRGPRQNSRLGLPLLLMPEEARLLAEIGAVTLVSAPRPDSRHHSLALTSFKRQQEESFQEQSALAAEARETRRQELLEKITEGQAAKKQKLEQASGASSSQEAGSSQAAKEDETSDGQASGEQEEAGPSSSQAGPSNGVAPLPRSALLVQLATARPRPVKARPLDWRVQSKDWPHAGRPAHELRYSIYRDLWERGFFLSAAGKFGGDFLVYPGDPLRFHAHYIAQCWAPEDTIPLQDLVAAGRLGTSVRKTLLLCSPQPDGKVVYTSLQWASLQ

[3] = target: T1, CstF64 (64 kD subunit 2) (human); test: co-purification with the His-Flag-tagged bait from stable 293 cells (anti-Flag beads, then Ni beads); SDS-PAGE, Western blot with anti-CstF64 antibody

binding [1]: binds
binding [2]: binds
binding (Symplekin (human)): binds
binding (HsSen2 (human)): binds
binding (HsSen34 (human)): binds
binding [3]: binds
B1: His-Flag-HsClp1 (protein, human, UniProt Q92989 1-425, looked up, not shown: small tags and cut ends)
chain: MGEEANDDKKPTTKFELERETELRFEVEASQSVQLELLTGMAEIFGTELTRNKKFTFDAGAKVAVFTWHGCSVQLSGRTEVAYVSKDTPMLLYLNTHTALEQMRRQAEKEEERGPRVMVVGPTDVGKSTVCRLLLNYAVRLGRRPTYVELDVGQGSVSIPGTMGALYIERPADVEEGFSIQAPLVYHFGSTTPGTNIKLYNKITSRLADVFNQRCEVNRRASVSGCVINTCGWVKGSGYQALVHAASAFEVDVVVVLDQERLYNELKRDLPHFVRTVLLPKSGGVVERSKDFRRECRDERIREYFYGFRGCFYPHAFNVKFSDVKIYKVGAPTIPDSCLPLGMSQEDNQLKLVPVTPGRDMVHHLLSVSTAEGTEENLSETSVAGFIVVTSVDLEHQVFTVLSPAPRPLPKNFLLIMDIRFMDLK
